According to PubChem BioAssay (EPA / NIEHS):
The shares of active, inactive and inconclusive entries below differ from those in the screen. Potencies beside an inconclusive call are fits to weak or partial responses and may not hold up. Calls of active or inactive are those of the source. Rule for the calls: active = hit-call score of the fitted dose curve at least 0.9, where 1 is the maximum; inconclusive = response in the unintended direction; inactive = score below 0.9.

Experiment: CCTE_Mundy_HCI_Cortical_NOG_NeuronCount: CCTE's Neurite Outgrowth Assay in rat cortical cells for Neuron Count, Mundy Lab (AID 2284236);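 note: neurons counted by imaging betaIII-tubulin and Hoechst stained cortical cells; cells exposed to compound for about 48 hours before fixation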
Method in brief: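 Read-out: neuron number by high-content imaging of betaIII-tubulin (Alexa Fluor-488) and Hoechst-labelled rat primary cortical cells.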

SMILES | AC50 | outcome
OCCOCCO | inconclusive: 0.1 nM | –
O=S(=O)(O)C(F)(F)C(F)(F)C(F)(F)C(F)(F)C(F)(F)C(F)(F)F | – | inactive
CCOP(=O)(OCC)Oc1nc(Cl)c(Cl)cc1Cl | inconclusive: 2.14 nM | –
CC(C)(C)C(O)(CCc1ccc(Cl)cc1)Cn1cncn1 (stereo unspecified) | inconclusive: 50000 nM | –
CCCSP(=O)(OCC)SCCC | – | inactive
O=S1OCC2C(CO1)C1(Cl)C(Cl)=C(Cl)C2(Cl)C1(Cl)Cl (stereo unspecified) | active: 25200 nM | –
O=C(O)C(F)(OC(F)(F)C(F)(F)C(F)(F)F)C(F)(F)F (stereo unspecified) | inconclusive: 2.69 nM | –
ClC1=C(Cl)[C@]2(Cl)[C@@H]3[C@@H](Cl)[C@H]4O[C@H]4[C@@H]3C1(Cl)C2(Cl)Cl | active: 34200 nM | –
CCC1(c2ccccc2)C(=O)N=C(O)NC1=O (stereo unspecified) | inconclusive: 0.94 nM | –
COP(N)(=O)SC (stereo unspecified) | inconclusive: 0.1 nM | –
Nc1cc(Cl)cc(C(=O)O)c1Cl | inconclusive: 0.1 nM | –
